Results: PubChem BioAssay AID504467 (National Center for Advancing Translational Sciences (NCATS), 2011)
Screen size: about 330,000 compounds; about 7,700 (2.3%) were called active. This list was built around the results that the source calls inconclusive (neither active nor inactive); the mix of calls is not that of the screen. Calls follow the shape of the dose curve; as a rule, active = well fitted inhibition curve with a large enough effect; inconclusive = small, poorly fitted or top-dose-only effect, or effect the other way; inactive = flat fitted curve, though single readings scatter. A potency beside an inconclusive call is a rough fit, not a confirmed value.
% is scaled to controls: 0 for no effect and ±100 for the full control effect; potency is read from the fitted curve at half-maximal effect.

Test: qHTS screen for small molecules that inhibit ELG1-dependent DNA repair in human embryonic kidney (HEK293T) cells expressing luciferase-tagged ELG1; also: nearly all actives have a fitted effect of over 55% in size
Conditions: HEK293T ELG1-luciferase reporter, luminescence, 16 h, DNA damage induced by 5-fluorouridine; activity change, negative = inhibition: at 46.1 µM (top of the series)
Excerpt: NIH Molecular Libraries Probe Production Network [MLPCN] NIH Chemical Genomics Center [NCGC] MLPCN Grant: 1 R03 MH092164-01 Assay Provider: Kyungjae Myung, NHGRI, NIH Keywords: MLPCN, qHTS, NCGC, genotoxicity, cancer Assay Overview: Cancer cells divide rapidly compared to normal cells in the body. During cell division, cancer cells need to duplicate their genome by DNA replication. The failure of genome duplication leads to cancer cells' death. Therefore, inhibitors of DNA replication could specifically kill cancer cells. Based on this concept, many chemotherapeutic agents were developed and have been used to treat cancer patients. However, there are a limited number of agents available in the clinical setting, and some of those that do exist have low efficacy and severe side effects. Therefore, if we can find the compounds that effectively block DNA replication either by directly damaging DNA or by inhibiting other cellular mechanisms, the options for cancer treatment will be broadened. With this in mind, we developed a quantitative high-throughput ELG1-luciferase reporter gene assay. Small molecules that specifically block ELG1 function in response to DNA damage can be identified by monitoring the suppression of luciferase activity. Since ELG1 defines a pathway for repairing DNA damage, agents blocking ELG1 function can be used to sensitize cancer cells to chemotherapeutic agents whose mechanism of action involves the induction of DNA damage.
Assay Protocol Summary: For genotoxicity screening, 2,000 cells in 4 uL/well were dispensed into white, solid-bottom 1536-well plates using a solenoid-based dispenser. Following transfer of 1 uL 5-Fluorouridine and 23 nL compound or DMSO vehicle by a pin tool, the plates were incubated 16 hr at 37 °C and 5% CO2. 5 ul ONE-Glo (Promega) was then added to each plate and following a 30 min incubation at room temperature, luciferase activity was quantified on a ViewLux CCD-based plate reader.
With `COc1cccc(N2CCN(S(=O)(=O)c3cccc4cccnc34)CC2)c1` the “activity change, negative = inhibition” value was inactive: -23.4%.
In the case of `Cc1cccc(NC(=O)c2ccc(NCCO)c([N+](=O)[O-])c2)n1`, the Potency is reported as inconclusive: 11.6 µM [activator, partial curve].
In the case of `S=C(NCC1CCCO1)N1CCN(c2nc(-c3ccccc3)cs2)CC1` (stereo not drawn), the Potency is reported as active: 23.1 µM.
For `CN(C)c1ccc(C2C=C(c3ccc(Cl)cc3OC(F)F)Nc3ncnn32)cc1` (stereo not drawn), the Potency was inconclusive: 29.1 µM [inhibitor, single point].
With `O=C1C=C(c2ccc(Cl)c(C(F)(F)F)c2)C[C@@H](c2ccc(F)cc2)C1` the Potency was inconclusive: 32.6 µM [inhibitor, single point].
With `O=C(CCCOc1ccc(Cl)cc1)Nc1cccc(C(=O)O)c1` the Potency was inconclusive: 16.4 µM [activator, partial curve, poor fit].
With `CC(C)CCNC(=O)CCc1nnc2n(CCCOC(C)C)c(=O)c3ccccc3n12` the “activity change, negative = inhibition” value was inactive: -11.9%.
For `Cc1csc(Sc2ccc([N+](=O)[O-])cc2C(=O)OCC(=O)NC2CCCC(C)C2C)n1` (stereo not drawn), the Potency was inconclusive: 6.51 µM [activator, partial curve].
In the case of `O=S(=O)(c1ccc(NCc2ccccc2)cc1)N1CCOCC1`, the Potency is reported as inconclusive: 29.1 µM [inhibitor, partial curve, poor fit].
With `CCc1nc(OCC(=O)c2ccccc2)c(C#N)c2c1COC(C)(C)C2` the Potency was inconclusive: 29.1 µM [inhibitor, single point].
In the case of `FC(F)(F)c1nc2nncn2c2c1CCCCC2`, the Potency is reported as inconclusive: 29.1 µM [activator, single point].
With `COc1cc2c(cc1OC)CN(c1nc(CN3CCCCC3)nc3sc4c(c13)CCCC4)CC2` the Potency was active: 23.1 µM.
For `C/C=C/C(=O)OCC(=O)Nc1cccc(Br)c1`, the “activity change, negative = inhibition” value was inactive: 10.8%.
In the case of `CC(=O)Nc1ccc(N(CC(O)Cn2c3ccccc3c3ccccc32)S(=O)(=O)c2ccc(C)cc2)cc1` (stereo not drawn), the Potency is reported as inconclusive: 25.9 µM [inhibitor, single point].
With `CN(C)C(=O)c1ccc(NC(=O)COC(=O)c2cc(S(=O)(=O)N(C)C)ccc2N2CCCC2)cc1` the Potency was inconclusive: 25.9 µM [inhibitor, single point].
For `Cc1[nH]n(-c2ccc([N+](=O)[O-])cc2)c(=O)c1C=NCCN1CCN(C(=O)c2ccc(F)cc2)CC1`, the “activity change, negative = inhibition” value was inactive: 14.2%.
In the case of `O=C(O)[C@H]1CCCC[C@H]1C(=O)Nc1ccc(S(=O)(=O)N2CCOCC2)cc1`, the “activity change, negative = inhibition” value is reported as inactive: 9.2%.
In the case of `COc1cccc(NS(=O)(=O)c2ccc3c(c2)CCCN3C(C)=O)c1`, the Potency is reported as inconclusive: 18.4 µM [inhibitor, single point].
For `CCOC(=O)CNC(=O)c1sc2ncnc(N3CCc4ccccc4C3)c2c1C`, the Potency was active: 18.4 µM.
In the case of `CC1=CC(C)(C)N(C(=O)CSc2nnc(C)s2)c2ccc(C)cc21`, the “activity change, negative = inhibition” value is reported as inactive: 0.431%.
With `O=C1CC(N(Cc2cccs2)C(=O)Nc2ccccc2)C(=O)N1c1ccc(Cl)cc1` (stereo not drawn) the “activity change, negative = inhibition” value was inactive: -14.9%.
For `CCOc1cc(Br)cc(/C=N/NC(=O)c2cccnc2)c1O`, the Potency was inconclusive: 8.2 µM [inhibitor, partial curve, poor fit].
For `CCOc1ccccc1NC(=O)C(C)CC` (stereo not drawn), the Potency was inconclusive: 0.0013 µM [activator, full curve, poor fit].
For `COc1ccc(OC)c(CNS(=O)(=O)c2cc(-c3cc(C)no3)ccc2OC)c1`, the “activity change, negative = inhibition” value was inactive: 0.0319%.
With `CC(C)C(=O)Nc1ccc(NC(=O)c2ccccc2Cl)nc1` the Potency was inconclusive: 13 µM [activator, partial curve].
For `CCc1nnc(NC(=O)CSc2ncnc3scc(-c4ccc(C)cc4)c23)s1`, the “activity change, negative = inhibition” value was inactive: 1.67%.
In the case of `CCN1CCN(CCCNC(=O)c2ccc(/C=C3/Sc4ccccc4N(Cc4ccccc4F)C3=O)cc2)CC1`, the “activity change, negative = inhibition” value is reported as inactive: 7.31%.
For `C1=C(CCNc2ncnc3nc[nH]c23)CCCC1`, the Potency was inconclusive: 20.6 µM [activator, partial curve].
With `NC(=O)c1ccc(Oc2ccc(C(N)=O)cc2)cc1` the “activity change, negative = inhibition” value was inactive: 5.32%.
With `CN1CCN(S(=O)(=O)c2cccc(C(=O)Oc3ccc(Br)cc3F)c2)CC1` the Potency was inconclusive: 9.2 µM [activator, partial curve, poor fit].
For `C=CCSc1cc(C)nc2c(-c3ccc(Cl)cc3)c(C)nn12`, the “activity change, negative = inhibition” value was inactive: 0.185%.
In the case of `CCS(=O)(=O)NCC(c1ccco1)N1CCN(c2ccccc2F)CC1` (stereo not drawn), the “activity change, negative = inhibition” value is reported as inactive: -3.48%.
In the case of `O=[N+]([O-])c1ccc(/C=N\N2CCN(c3ccc(Cl)cc3)CC2)cc1`, the “activity change, negative = inhibition” value is reported as inactive: 1%.
In the case of `COc1ccc(C2=C(c3ccc(OC)c(OC)c3)CN3CCCCC3C2)cc1` (stereo not drawn), the “activity change, negative = inhibition” value is reported as inactive: 8.81%.
In the case of `Clc1cccc(N/N=C(\Cc2nc3ccccc3[nH]2)c2ccccc2)c1`, the Potency is reported as inconclusive: 16.4 µM [activator, single point].
In the case of `COc1ccc(C(=O)Nc2cccc(S(=O)(=O)NC3=NCCCCC3)c2)cc1`, the “activity change, negative = inhibition” value is reported as inactive: -9.52%.
For `Cc1cccc(N(C(=O)c2snc(C(N)=O)c2N)C(C)C(=O)NCC2CCCO2)c1` (stereo not drawn), the “activity change, negative = inhibition” value was inactive: 8.64%.
For `C=CCn1ccc(O)c(Cc2ccc(Cl)cc2)c1=O`, the “activity change, negative = inhibition” value was inactive: -7.69%.
For `CCCCn1nc(C(=O)Nc2nc3c(s2)CCCC3)c2ccccc2c1=O`, the Potency was active: 14.6 µM.
For `CC1=C(C)CS(=O)N(S(=O)(=O)c2ccccc2)C1` (stereo not drawn), the Potency was inconclusive: 25.9 µM [activator, partial curve, poor fit].
With `CCOc1ccc(-n2nnnc2SCC(=O)N2CCOCC2)cc1` the Potency was inconclusive: 25.9 µM [activator, partial curve, poor fit].
For `COCCN1CN=C(Nc2nc3ccccc3s2)NC1`, the Potency was inconclusive: 23.1 µM [activator, single point].
In the case of `O=C(COC(=O)CCc1ccccc1)Nc1ccccc1OC(F)F`, the “activity change, negative = inhibition” value is reported as inactive: 13.1%.
For `CCCCn1c(N)c(N(Cc2ccccc2OC)C(=O)COc2ccccc2C#N)c(=O)[nH]c1=O`, the “activity change, negative = inhibition” value was inactive: 5.9%.
For `O=C(Nc1ccccc1)N1CCN(c2ccccn2)CC1`, the “activity change, negative = inhibition” value was inactive: -4.15%.
In the case of `CC(NC(=O)C1CCC(C(C)(C)C)CC1)C(c1ccccc1)N1CCOCC1` (stereo not drawn), the Potency is reported as inconclusive: 20.6 µM [activator, partial curve, poor fit].
With `Cn1c(SCC(=O)c2ccccc2)nnc1-c1cccnc1` the Potency was inconclusive: 16.4 µM [activator, partial curve].
For `Cc1cccc(-c2noc(CCC(=O)NCCc3ccccc3)n2)c1`, the “activity change, negative = inhibition” value was inactive: 0.506%.
In the case of `CS(=O)(=O)Nc1ccc(C2=NN(S(C)(=O)=O)C(c3ccc4nccnc4c3)C2)cc1` (stereo not drawn), the Potency is reported as inconclusive: 18.3 µM [activator, single point].
With `Cc1onc(C(=O)Nc2c(C)n(C)n(-c3ccccc3)c2=O)c1[N+](=O)[O-]` the “activity change, negative = inhibition” value was inactive: -15%.
For `CCN(CC)S(=O)(=O)c1ccc(C)c(C(=O)Oc2cccc(-c3cnc4ccccc4n3)c2)c1`, the Potency was inconclusive: 4.11 µM [activator, single point].
With `N#Cc1cccc(N=Cc2c(O)ccc3ccccc23)c1` the “activity change, negative = inhibition” value was inactive: 11.4%.
In the case of `COc1cccc(NC(=O)CN(C)C(=O)c2cccc(S(=O)(=O)N3CCN(c4ccccc4)CC3)c2)c1`, the Potency is reported as inconclusive: 16.4 µM [inhibitor, partial curve].
For `Cc1ccc(NC(=O)C2CCCN2S(=O)(=O)c2cccc3cccnc23)cc1F` (stereo not drawn), the Potency was inconclusive: 20.6 µM [inhibitor, partial curve, poor fit].
In the case of `O=C(CSc1ccc(Cl)cc1)N1CCC(c2nc3ccccc3s2)CC1`, the Potency is reported as inconclusive: 18.4 µM [inhibitor, partial curve, poor fit].
For `CCOc1cc(/C=C2\C(=N)N3N=C(S(=O)(=O)CC)SC3=NC2=O)ccc1OC(=O)c1ccco1`, the Potency was inconclusive: 11.6 µM [activator, partial curve, poor fit].
In the case of `CO/N=C\C(=N\Nc1ccc(OC)cc1)C(=O)c1ccccc1`, the Potency is reported as inconclusive: 29.1 µM [inhibitor, single point].
With `Cc1ccc(Sc2nc(-c3ccccc3)ccc2C#N)cc1` the Potency was inconclusive: 5.17 µM [activator, single point].
In the case of `COc1cccc(N(CC(=O)NCCSCc2ccc(Cl)cc2)S(C)(=O)=O)c1`, the Potency is reported as inconclusive: 35.5 µM [inhibitor, single point].
In the case of `O=C(CNc1cccc(S(=O)(=O)N2CCCC2)c1)Nc1ccc(F)cc1F`, the “activity change, negative = inhibition” value is reported as inactive: -16.6%.
In the case of `O=c1c2ccccc2nc(N/N=C/c2ccc(O)cc2)n1O`, the Potency is reported as inconclusive: 5.8 µM [activator, partial curve, poor fit].
For `CCOc1ccccc1NC(=O)C(CC)Sc1nc2ccncc2[nH]1` (stereo not drawn), the “activity change, negative = inhibition” value was inactive: 1.01%.
With `O=C(O)C1CC(=O)N(c2ccc3c(c2)OCCO3)C1` (stereo not drawn) the “activity change, negative = inhibition” value was inactive: 0%.
In the case of `CC(C)C(=O)Nc1ccc(C(=O)c2ccccc2)cc1`, the Potency is reported as inconclusive: 9.2 µM [activator, partial curve].
With `O=C(C1CCN(S(=O)(=O)c2cccc3nsnc23)CC1)N1CCc2ccccc2C1` the Potency was inconclusive: 20.6 µM [inhibitor, single point].
In the case of `COc1ccc(OC)c(NC(=O)NC2CCCc3ccccc32)c1` (stereo not drawn), the “activity change, negative = inhibition” value is reported as inactive: 0.478%.
For `NS(=O)(=O)c1ccc(NC(=O)Nc2ccc(S(N)(=O)=O)cc2)cc1`, the “activity change, negative = inhibition” value was inactive: 4.72%.
For `CCC1CCCCN1S(=O)(=O)c1ccc(S(=O)(=O)N(Cc2cccs2)C2CC2)cc1` (stereo not drawn), the Potency was inconclusive: 2.59 µM [inhibitor, partial curve, poor fit].
For `Cc1ccc(NC(=S)NNC(=O)c2nn(C)c(C)c2Cl)cc1`, the Potency was inconclusive: 1.12 µM [activator, full curve].
For `COc1ccc(/C=C2\CCn3c2nc2ccccc2c3=O)cc1OC`, the Potency was inconclusive: 5.8 µM [activator, partial curve].
With `Cc1ccc(N(C(=O)c2csnn2)C(C(=O)NC2CCCCC2)c2ccncc2)cc1` (stereo not drawn) the “activity change, negative = inhibition” value was inactive: 6.7%.
With `COc1ccc(Br)c(C(=O)N2CCN(S(=O)(=O)c3cccs3)CC2)c1` the “activity change, negative = inhibition” value was inactive: 0.189%.
With `O=c1[nH]c(SCc2ccc(Cl)cc2)nc2c1CCC2` the Potency was inconclusive: 25.9 µM [activator, single point].
